Measurements as given in PubChem BioAssay AID330 (DTP/NCI, 2004).
The list does not hold the whole screen: it is rich in T/C values a quarter to a half above the control, in often repeated tests (any T/C) and in doses without a T/C. Further doses and runs are listed elsewhere. T/C gives the treated animals as a percentage of the vehicle group. Some entries give survivors of the animals treated and no T/C: the source holds a T/C of zero for them, seemingly a mark for toxic or unscored doses. Some survivor counts are full or nearly so, which does not show that the dose was tolerated: survival well below the control is almost never listed, so the zero probably covers shortened survival too. Counts of survivors are from the toxicity check (mostly the fifth day) where no day follows; animals may have died later. Schedules are NCI's codes, taken here to give the interval after Q, in days (D) or hours (H), and the number of doses after X. Some doses were run more than once; their values stand side by side, smallest first. For survival time, the PubChem record calls one and a half times the control and up active, and a quarter to a half above the control has no call in these data; cut-offs in other NCI protocols can differ. Signs of the kind (2×) give the number of equal values in this list. Some T/C values are followed by the survivors on the day toxicity was checked, most often the fifth; without a count, all were alive then.

System: P388 leukemia ip, CD2F1 mice, survival T/C
Assay: NCI In Vivo Anticancer Drug Screen. Data for tumor model P388 Leukemia (intraperitoneal) in CD2F1 (CDF1) mice
Settings: T/C endpoint: median survival time, higher T/C = longer survival
[1] = dose: 200.0 mg/kg/injection, schedule: Q01DX009 (ip), vehicle: saline
[2] = dose: 240.0 mg/kg/injection, schedule: Q01DX005 (ip), vehicle: saline with Tween-80
[3] = dose: 200.0 mg/kg/injection, schedule: Q01DX005 (ip), vehicle: Klucel (hydroxypropylcellulose) (HPC)
[4] = dose: 200.0 mg/kg/injection, schedule: Q01DX005 (ip), vehicle: saline
[5] = dose: 12.5 mg/kg/injection, schedule: Q04DX003 (ip), vehicle: saline
[6] = dose: 25.0 mg/kg/injection, schedule: Q04DX003 (ip), vehicle: saline

Which survivor count (dose: 60.0 mg/kg/injection, schedule: Q01DX005 (ip), vehicle: saline) does the source give for `CC(C)[Si]1(C(C)C)N[Si](C(C)C)(C(C)C)N1` here?
The survivor count was 5 of 6.

Which T/C (dose: 200.0 micrograms/kg/injection, schedule: Q01DX009 (ip), vehicle: saline + alcohol) does the source give for `CCC(=O)N(C)C(C)C(=O)OC1CC(=O)N(C)c2cc(cc(OC)c2Cl)CC2(C)OC2/C=C/C(OC)C2(O)CC(OC(=O)N2)C(C)C2OC12C` (centres undefined) here?
Its T/C is 133 % of control (2×).

And the T/C (dose: 400.0 micrograms/kg/injection, schedule: Q01DX009 (ip), vehicle: saline + alcohol)?
Its T/C is 135 and 140 % of control.

How did the survivor count [1] turn out when `NC(=O)c1[nH]cnc1N` was run?
Its survivor count is 6 of 6.

`S=c1n(-c2ccc(Cl)cc2)c2/c(=N\Nc3cc(Cl)ccc3Cl)c(n1-c1ccccn1)=NCCN=2` was tested. Which survivor count (dose: 120.0 mg/kg/injection, schedule: Q01DX005 (ip), vehicle: saline with Tween-80) did it give?
Its survivor count is 4 of 6.

What about the survivor count [2] of the same compound?
Its survivor count is 1 of 6.

For `CC(C)(F)c1nc2cc3ccccc3cc2[nH]c1=O`, which survivor count (dose: 400.0 mg/kg/injection, schedule: Q01DX001 (ip), vehicle: saline with Tween-80) is on record?
The survivor count was 6 of 6.

How did the survivor count [3] turn out when `CN1CCC2(C)CC(Br)(Cc3ccccc32)C1Cl` (centres undefined) was run?
The survivor count was 0 of 5.

For `NC(N)=NCCNC(=O)C1CCC(N)C1` (centres undefined), which survivor count (dose: 1.25 mg/kg/injection, schedule: Q01DX009 (ip), vehicle: saline) is on record?
Its survivor count is 6 of 6.

What about the survivor count (dose: 2.5 mg/kg/injection, schedule: Q01DX009 (ip), vehicle: saline) of the same compound?
The survivor count was 6 of 6.

What about the survivor count (dose: 5.0 mg/kg/injection, schedule: Q01DX009 (ip), vehicle: saline) of the same compound?
Its survivor count is 6 of 6.

How did the survivor count [4] turn out when `CC(N)C(=O)NC(Cc1ccccc1)C(=O)N1CCCC1C(=O)Nc1ccc2ccccc2c1` (centres undefined) was run?
Its survivor count is 0 of 5.

With `CN(C)CCOc1ccc2c(c1)C1=NN(c3ccccc3)C(=O)CC1CO2` (centres undefined) as the compound, how does the survivor count [2] read?
The survivor count was 0 of 6.

How did the survivor count [4] turn out when `N#CC1(OC2OC(CO)C(O)C(O)C2O)C=CC(O)C1` (centres undefined) was run?
The survivor count was 1 of 6.

What does the source list for `O=C1c2cccc3cc([N+](=O)[O-])cc(c23)C(=O)N1CCCN(CCO)CCO`?
T/C (dose: 50.0 mg/kg/injection, schedule: Q01DX005 (ip), vehicle: saline with Tween-80): 125 % of control; survivor count (dose: 200.0 mg/kg/injection, schedule: Q01DX005 (ip), vehicle: saline with Tween-80): 2 of 6 and 4 of 6

Which results are given for `CC[CH2][Sn]([Br])([Br])[CH2]CC`?
T/C (dose: 6.25 mg/kg/injection, schedule: Q04DX003 (ip), vehicle: saline): 131 % of control; T/C [5]: 127 % of control [4 of 6 alive]; survivor count [5]: 3 of 6; T/C [6]: 142 % of control [4 of 6 alive]; survivor count [6]: 0 of 6; survivor count (dose: 100.0 mg/kg/injection, schedule: Q04DX003 (ip), vehicle: saline): 0 of 6; survivor count (dose: 200.0 mg/kg/injection, schedule: Q04DX003 (ip), vehicle: saline): 0 of 6; survivor count (dose: 400.0 mg/kg/injection, schedule: Q04DX003 (ip), vehicle: saline): 0 of 6

For `CN(CCCCC1CCCN(C(=O)c2ccccc2)C1)C(=O)c1ccccc1` (centres undefined), which survivor count (dose: 100.0 mg/kg/injection, schedule: Q01DX005 (ip), vehicle: Klucel (hydroxypropylcellulose) (HPC)) is on record?
The survivor count was 1 of 5.

What about the survivor count [3] of the same compound?
The survivor count was 0 of 5.

With `COc1cc2cc(c1Cl)N1CC(O)C(C)(O)C(=O)NC(C)C(=O)OC(CC1=O)C1(C)OC1C(C)C1CC(O)(NC(=O)O1)C(OC)/C=C\C=C(\C)C2OC` (centres undefined) as the compound, how does the survivor count (dose: 0.12 mg/kg/injection, schedule: Q01DX009 (ip), vehicle: none) read?
Its survivor count is 0 of 4.

And the survivor count (dose: 0.25 mg/kg/injection, schedule: Q01DX009 (ip), vehicle: none)?
Its survivor count is 0 of 4.

What about the survivor count (dose: 0.5 mg/kg/injection, schedule: Q01DX009 (ip), vehicle: none) of the same compound?
Its survivor count is 0 of 4.

What about the survivor count (dose: 1.0 mg/kg/injection, schedule: Q01DX009 (ip), vehicle: none) of the same compound?
Its survivor count is 0 of 4.

What about the T/C (dose: 2.0 micrograms/kg/injection, schedule: Q01DX009 (ip), vehicle: distilled water + alcohol) of the same compound?
Its T/C is 144 % of control.

What about the T/C (dose: 4.0 micrograms/kg/injection, schedule: Q01DX009 (ip), vehicle: distilled water + alcohol) of the same compound?
Its T/C is 137 % of control.

And the T/C (dose: 8.0 micrograms/kg/injection, schedule: Q01DX009 (ip), vehicle: distilled water + alcohol)?
Its T/C is 146 % of control.

What about the T/C (dose: 16.0 micrograms/kg/injection, schedule: Q01DX009 (ip), vehicle: distilled water + alcohol) of the same compound?
Its T/C is 137 % of control.

And the survivor count (dose: 31.0 micrograms/kg/injection, schedule: Q01DX009 (ip), vehicle: none)?
The survivor count was 4 of 4.

And the survivor count (dose: 32.0 micrograms/kg/injection, schedule: Q01DX009 (ip), vehicle: distilled water + alcohol)?
Its survivor count is 6 of 6.

And the survivor count (dose: 62.0 micrograms/kg/injection, schedule: Q01DX009 (ip), vehicle: none)?
Its survivor count is 1 of 4.

With `C[CH2][GeH][CH2]C.C[CH2][Ge]([CH2]C)[CH2]C` as the compound, how does the survivor count [1] read?
Its survivor count is 0 of 6.

For `O=C1CCCC1C(=O)c1ccccc1.O=C1CCCC1C(=O)c1ccccc1.[Cu]` (centres undefined), which survivor count (dose: 200.0 mg/kg/injection, schedule: Q01DX009 (ip), vehicle: Klucel (hydroxypropylcellulose) (HPC)) is on record?
The survivor count was 0 of 6.
